Measured values taken from publication PMC9675814, “DNA mechanical flexibility controls DNA potential to activate cGAS-mediated immune surveillance”.
A weaker result is weaker than the reference pair of the same experiment. For some of these results: For at least one entry, the source does not settle the construct or the ends of the probe. For some of these results: At least one verdict was read from the data and is not stated in words by the source.

Amino acid sequences for entries named in this document (tags omitted).
UniProt Q8N884, whole entry: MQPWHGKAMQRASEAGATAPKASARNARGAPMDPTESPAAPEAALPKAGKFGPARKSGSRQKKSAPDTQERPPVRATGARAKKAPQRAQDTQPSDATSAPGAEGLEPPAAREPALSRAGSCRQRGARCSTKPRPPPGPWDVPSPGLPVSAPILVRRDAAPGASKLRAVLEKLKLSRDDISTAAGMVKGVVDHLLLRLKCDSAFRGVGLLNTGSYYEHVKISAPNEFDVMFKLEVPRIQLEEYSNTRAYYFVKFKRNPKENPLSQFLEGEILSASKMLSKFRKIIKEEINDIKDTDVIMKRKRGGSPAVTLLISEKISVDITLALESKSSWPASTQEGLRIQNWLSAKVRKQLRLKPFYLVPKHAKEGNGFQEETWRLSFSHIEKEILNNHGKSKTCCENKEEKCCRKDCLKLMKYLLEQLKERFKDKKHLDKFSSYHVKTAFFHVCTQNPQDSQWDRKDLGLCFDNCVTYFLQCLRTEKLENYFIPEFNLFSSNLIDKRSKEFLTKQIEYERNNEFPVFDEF

The sequences below were run against hcGAS WT (Homo sapiens) (UniProt Q8N884) (assay: EMSA). Conditions: EMSA: 50 nM Cy3-DNA, 20 mM Tris-HCl pH 7.5, 150 mM NaCl, 37 C 30 min, 1.5% agarose; recombinant protein; residues 1-522; protein details: His (pET-28a, Ni purified).
“AAAAAAAAAAAAAAAAAAAAAAAAAAAAAAAAAAAAAAAAAAAA (double strand) [pA:pT 44 bp]”: binds more weakly.

Same assay, conditions: EMSA: 50 nM Cy3-DNA, 20 mM Tris-HCl pH 7.5, 150 mM NaCl, 37 C 30 min, 1.5% agarose; recombinant protein; residues 1-522; protein details: His (pET-28a, Ni purified); label: 5' Cy3 on F (EMSA)
“TTTTATTTATCGCCTCCTTTTTTTTTTTTTTTTTTTTTTTTTTCCGTGTTATCTCGAGTTAGT (double strand) [E8A26 63 bp]”: binds more weakly.

Same assay, conditions: Kd shown only in figure; EMSA: 50 nM Cy3-DNA, 20 mM Tris-HCl pH 7.5, 150 mM NaCl, 37 C 30 min, 1.5% agarose; recombinant protein; residues 1-522; protein details: His (pET-28a, Ni purified)
“TGCTAATCCATATCATATAATCTAAAAACAAATCTAAAGGATCATCCATA (double strand) [seq8]”: binds.
“TGTTACGCATACACACAAGTACAGATTTGTATATAGTATTTCTTCTTCGT (double strand) [seq5]”: binds.
“TTTATCTCAAATTTGCGCTTTTTAGTCCAATCTCTCACAGTGACTATAGT (double strand) [seq3]”: binds.
“GGAATGGTTACCGAAAACGGGCTTCTTCTCATCCATATCCATAATTTCAT (double strand) [seq10]”: binds.
“CGACTATTTTTTAATTGATAGTTCTGAAGGCTCTTCTACTGATGACGAAC (double strand) [seq6]”: binds.
“TTTGTCAGGGTGTTCTTCGATTTTCCTTAGGTGCTTTTAGGACTTGTTTA (double strand) [seq7]”: binds.
“TGTCTACTTGAAATTCTAATTCATATTTTTTTTGTTTGGATAGAATATCA (double strand) [seq2]”: binds.
“CAAAAGTGACATCCACAGCAAGCTGGACAGGTAAATTGCCTCATACAATC (double strand) [seq9]”: binds.
“CTTCAACGCACCTTAAATCTATTCTTTTAAATTTTCCAGATTCTATTAAC (double strand) [seq4]”: binds.
“AGGGCTTTTCTGTATTTTCTCATAGACATTATTTATCAGTAATTGCAGCT (double strand) [seq1]”: binds.

Each sequence was assayed against hcGAS WT (Homo sapiens) (UniProt Q8N884) (assay: MARTFQ fluorescence quenching). Conditions: MARTFQ: 50 nM cGAS, DNA titration, 5 min; recombinant protein; residues 1-522; protein details: His (pET-28a, Ni purified); label: 5' Cy3 on F (EMSA).
“TTTTATTTATCGCCTCCTTTTTTTTTTTTTTTTTTTTTTTTTTCCGTGTTATCTCGAGTTAGT (double strand) [E8A26 63 bp]”: binds more weakly.
